The source of these data is the supplement of paper PMC5949888.

Most values lie at the floor of the assay. Slopes are relative: functional sequences can read slightly below zero.

The data set deals with Saccharomyces cerevisiae PS128 hsf1 delta, HSF1(1-493) fusion. The experiment in a line: growth estimate (transactivation domain function in HSF1 fusion, heat-shock survival) (a.u. (slope of normalised read count over time)); higher = stronger growth at 37°C, i.e. more transactivation activity. To be noted: library: random library.
Take IHLRATDYVYCPCLGCANWR: the growth estimate was less than -0.25.

As for RVPYAGEANPQPRKPGRVHV, the growth estimate is less than -0.25.

YSPVAVAPADVWVA: the growth estimate is less than -0.25.

As to HEWQTSPMQLGAQFRSGHKA, the growth estimate was less than -0.25.

On to YEQSGMFLSVRH, for which the growth estimate was less than -0.25.

On to GRSPVLRTLYA, for which the growth estimate was less than -0.25.

For RDRLWDWPDAYTSQDGMQVC, the growth estimate was less than -0.25.

Turning to SHA, the growth estimate was less than -0.25.

As to SVLNRGSVKDLF, the growth estimate was less than -0.25.

In the case of GGDSS, the growth estimate was less than -0.25.

In the case of RIRGEEIVGTSRGCRWDRLL, the growth estimate is less than -0.25.

For TSCVNGN, the growth estimate is less than -0.25.

In the case of CRQLLPLGQVSRSLLRTFAR, the growth estimate is less than -0.25.

Turning to KHNWW, the growth estimate was less than -0.25.

VFC: the growth estimate is less than -0.25.

With RTFKSWSAFYSRGGLRHIPA, the growth estimate was less than -0.25.

With VLERGSSITVTPCAGSSRGI, the growth estimate was less than -0.25.

PQWPGEQFRGEHG: the growth estimate is less than -0.25.

As to GIGPAALLSSRRGGLPGMIP, the growth estimate was less than -0.25.

As for WCSGVTVVTYCEWNVVISTV, the growth estimate was less than -0.25.

Turning to MTLLLAATPRSEETAPMQSL, the growth estimate was less than -0.25.

As for GSAIATSDRN, the growth estimate is -0.245.

For the substance VSCTGSWVKGARGSRPMSFT, the growth estimate is less than -0.25.

Consider LGYALIGLPRS, for which the growth estimate is less than -0.25.

On to RTGT, for which the growth estimate is less than -0.25.

Consider FVGVGPTEPAVWRHICLHPH, for which the growth estimate is -0.246.

KLVNRRLDCRESYKH: the growth estimate was less than -0.25.

Turning to RRIKLAQRIPGGYPGASCSA, the growth estimate is less than -0.25.

Turning to EPNGFAYRCMRKHRL, the growth estimate was less than -0.25.

On to RPWKIECRGRAQFVRNLSSF, for which the growth estimate was less than -0.25.

As for RDSSNGPYV, the growth estimate was less than -0.25.

For SSCPKGNGDSIGMSPPNVGA, the growth estimate was less than -0.25.

In the case of PPRLSHWRVNLLDLSAD, the growth estimate is less than -0.25.

Turning to FHFVCRMLSGFIIDQLD, the growth estimate was less than -0.25.

As to HRIQRYVSTPQDFLQVGDMT, the growth estimate is less than -0.25.

NRVCSASSHWIGHLFYSHG: the growth estimate was less than -0.25.

Turning to AYGPQVSLFSPCG, the growth estimate was less than -0.25.

Regarding QRQAGLRLSGSRSGLYHPYH, the growth estimate was less than -0.25.

As for PYSFVGNPLCAPNLVGLHVG, the growth estimate is -0.199.

Regarding GGSYQYMSRWIAMLI, the growth estimate is less than -0.25.

Consider SRSS, for which the growth estimate is less than -0.25.

Consider DRRQGRDLLNAVWKVKLIAE, for which the growth estimate is less than -0.25.

With RLSYRSRVSLLASHGCVVTG, the growth estimate was -0.245.

For NVDRVV, the growth estimate was less than -0.25.

VRILLAEASCLVANRGGLAW: the growth estimate was less than -0.25.

As to LSTQQNIPDQEGYHSHGFCR, the growth estimate is less than -0.25.

Turning to RRPYDPSYVVVSI, the growth estimate was less than -0.25.

Regarding VGGSRTERAI, the growth estimate is less than -0.25.

Consider GCITSYSRKVRGREHVGFRA, for which the growth estimate is less than -0.25.

Take VHSLPPGS: the growth estimate is less than -0.25.

In the case of LLRAHHRLYWGDPKSLLTFP, the growth estimate was less than -0.25.

As to DVAARTHD, the growth estimate is less than -0.25.

With MRVRRRTAL, the growth estimate is less than -0.25.

As to SSYQAATVISVNQNSLGMTP, the growth estimate was less than -0.25.

As for KNQNVCQLHGIAYARRTPPQ, the growth estimate is less than -0.25.

With DPGASRCCGRGGSVLIDFSR, the growth estimate was less than -0.25.

In the case of QAAICAQ, the growth estimate is less than -0.25.

For the substance CMHFQSSTHRRGTGLLPLSP, the growth estimate was less than -0.25.

For SAHRKRPLVGKGLSTKYKGP, the growth estimate is less than -0.25.

SYV: the growth estimate was less than -0.25.

WRGERHRKF: the growth estimate is less than -0.25.

Turning to EISGYCGKPSGVHHLGEI, the growth estimate is less than -0.25.

In the case of TVRDIK, the growth estimate was less than -0.25.

In the case of FACLP, the growth estimate was less than -0.25.

Regarding RDL, the growth estimate is less than -0.25.

For the substance SLASPTGVWSRLNCIRYNAA, the growth estimate is less than -0.25.

Turning to SQGRIVVVV, the growth estimate was less than -0.25.

With FRGLRAQVYYTTACYRELTR, the growth estimate is less than -0.25.

For the substance QLEWVKT, the growth estimate is less than -0.25.

As to GMRGP, the growth estimate is less than -0.25.

LTKRNGMG: the growth estimate was less than -0.25.

As for REAAMYVPCGEAYGEEREVA, the growth estimate is less than -0.25.

Consider LSGVVLAGLRGRALF, for which the growth estimate is less than -0.25.

SAGLIPGRDSSGGTTDWACW: the growth estimate is less than -0.25.

With WVYNSTTDPFV, the growth estimate was less than -0.25.

As to IPK, the growth estimate was less than -0.25.

Turning to ADIQENATLGRPLRDGSPPP, the growth estimate is 0.146.

VEGVKFMRRISILVRCDHRS: the growth estimate is less than -0.25.
